Data taken from the supplement of paper PMC10849652.
This is one part of the list.

The chains behind the UniProt entries cited, without tags or fusion partners. Where a name states a change or a piece, a line headed by the entry shows the natural chain unless it says otherwise.
UniProt P55084: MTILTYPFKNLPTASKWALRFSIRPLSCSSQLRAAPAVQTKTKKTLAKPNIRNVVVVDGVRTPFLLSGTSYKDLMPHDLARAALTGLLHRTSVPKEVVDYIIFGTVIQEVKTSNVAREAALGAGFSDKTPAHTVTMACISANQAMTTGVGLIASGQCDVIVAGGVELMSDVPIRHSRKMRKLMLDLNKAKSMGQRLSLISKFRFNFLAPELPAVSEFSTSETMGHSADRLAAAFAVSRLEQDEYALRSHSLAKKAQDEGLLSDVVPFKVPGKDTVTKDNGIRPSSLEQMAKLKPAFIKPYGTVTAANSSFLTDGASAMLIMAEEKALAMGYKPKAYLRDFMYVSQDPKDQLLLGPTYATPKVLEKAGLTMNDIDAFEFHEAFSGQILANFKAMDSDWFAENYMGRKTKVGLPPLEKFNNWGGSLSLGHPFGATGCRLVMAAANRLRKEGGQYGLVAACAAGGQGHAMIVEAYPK
UniProt Q03013: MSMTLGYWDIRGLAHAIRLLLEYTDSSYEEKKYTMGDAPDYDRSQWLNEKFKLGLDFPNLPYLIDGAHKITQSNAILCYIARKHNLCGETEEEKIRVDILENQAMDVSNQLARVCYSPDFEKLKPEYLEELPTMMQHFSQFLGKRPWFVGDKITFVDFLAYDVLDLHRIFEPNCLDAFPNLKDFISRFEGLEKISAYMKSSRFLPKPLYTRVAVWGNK
UniProt Q92664: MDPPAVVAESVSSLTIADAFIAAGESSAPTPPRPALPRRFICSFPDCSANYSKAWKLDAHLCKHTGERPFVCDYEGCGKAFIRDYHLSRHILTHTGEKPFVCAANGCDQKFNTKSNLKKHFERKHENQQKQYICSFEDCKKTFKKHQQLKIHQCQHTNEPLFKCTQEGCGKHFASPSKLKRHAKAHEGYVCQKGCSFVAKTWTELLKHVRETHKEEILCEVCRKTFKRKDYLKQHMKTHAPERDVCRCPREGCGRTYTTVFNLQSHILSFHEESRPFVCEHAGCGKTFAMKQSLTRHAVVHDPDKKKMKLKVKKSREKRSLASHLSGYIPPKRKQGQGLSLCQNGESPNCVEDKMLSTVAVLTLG
UniProt P0C0S5, whole entry, looked up: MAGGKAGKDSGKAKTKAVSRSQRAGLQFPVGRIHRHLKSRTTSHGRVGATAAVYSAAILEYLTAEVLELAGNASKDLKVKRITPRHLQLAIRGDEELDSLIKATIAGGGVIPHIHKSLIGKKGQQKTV
UniProt P00390: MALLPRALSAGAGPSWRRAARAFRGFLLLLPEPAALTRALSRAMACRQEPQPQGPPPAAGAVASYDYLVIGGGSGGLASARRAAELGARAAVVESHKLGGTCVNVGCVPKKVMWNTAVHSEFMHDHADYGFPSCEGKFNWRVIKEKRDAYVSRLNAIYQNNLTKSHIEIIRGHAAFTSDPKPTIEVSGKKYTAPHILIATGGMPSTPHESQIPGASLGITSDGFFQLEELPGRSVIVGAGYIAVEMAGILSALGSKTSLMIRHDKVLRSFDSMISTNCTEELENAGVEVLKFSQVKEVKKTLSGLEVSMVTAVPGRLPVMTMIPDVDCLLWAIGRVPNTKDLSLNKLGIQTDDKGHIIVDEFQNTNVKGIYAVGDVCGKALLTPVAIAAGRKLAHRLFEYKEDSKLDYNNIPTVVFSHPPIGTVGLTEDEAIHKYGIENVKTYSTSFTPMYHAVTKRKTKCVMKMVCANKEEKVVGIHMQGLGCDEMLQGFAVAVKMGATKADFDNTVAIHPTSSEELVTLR
UniProt O14929: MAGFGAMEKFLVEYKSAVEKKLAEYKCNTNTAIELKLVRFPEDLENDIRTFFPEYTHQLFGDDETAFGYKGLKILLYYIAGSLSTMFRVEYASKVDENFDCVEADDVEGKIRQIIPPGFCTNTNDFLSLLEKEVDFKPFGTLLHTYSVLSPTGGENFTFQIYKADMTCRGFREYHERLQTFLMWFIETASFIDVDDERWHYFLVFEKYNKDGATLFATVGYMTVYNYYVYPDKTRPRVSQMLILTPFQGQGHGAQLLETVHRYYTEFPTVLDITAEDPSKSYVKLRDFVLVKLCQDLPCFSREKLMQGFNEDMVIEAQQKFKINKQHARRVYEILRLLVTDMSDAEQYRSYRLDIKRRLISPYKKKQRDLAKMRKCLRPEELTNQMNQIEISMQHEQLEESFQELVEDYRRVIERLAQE
UniProt Q7Z4V5: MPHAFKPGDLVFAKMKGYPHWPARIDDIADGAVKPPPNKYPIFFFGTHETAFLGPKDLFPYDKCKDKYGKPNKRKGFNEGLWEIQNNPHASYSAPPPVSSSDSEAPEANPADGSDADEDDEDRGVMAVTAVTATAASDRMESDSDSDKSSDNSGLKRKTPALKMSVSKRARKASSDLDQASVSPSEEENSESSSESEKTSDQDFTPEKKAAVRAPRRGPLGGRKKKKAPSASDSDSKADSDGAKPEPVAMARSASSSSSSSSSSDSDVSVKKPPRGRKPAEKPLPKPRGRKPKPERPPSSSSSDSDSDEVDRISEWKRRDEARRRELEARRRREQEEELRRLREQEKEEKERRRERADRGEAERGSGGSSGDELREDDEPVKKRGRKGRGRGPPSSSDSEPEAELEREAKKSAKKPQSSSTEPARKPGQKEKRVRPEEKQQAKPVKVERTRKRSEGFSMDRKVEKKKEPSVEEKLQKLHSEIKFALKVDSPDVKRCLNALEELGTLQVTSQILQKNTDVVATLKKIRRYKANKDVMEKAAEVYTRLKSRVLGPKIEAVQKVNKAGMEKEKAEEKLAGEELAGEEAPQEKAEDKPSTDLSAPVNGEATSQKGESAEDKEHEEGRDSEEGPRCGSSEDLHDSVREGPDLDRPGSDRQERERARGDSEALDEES
UniProt Q9Y5Q8: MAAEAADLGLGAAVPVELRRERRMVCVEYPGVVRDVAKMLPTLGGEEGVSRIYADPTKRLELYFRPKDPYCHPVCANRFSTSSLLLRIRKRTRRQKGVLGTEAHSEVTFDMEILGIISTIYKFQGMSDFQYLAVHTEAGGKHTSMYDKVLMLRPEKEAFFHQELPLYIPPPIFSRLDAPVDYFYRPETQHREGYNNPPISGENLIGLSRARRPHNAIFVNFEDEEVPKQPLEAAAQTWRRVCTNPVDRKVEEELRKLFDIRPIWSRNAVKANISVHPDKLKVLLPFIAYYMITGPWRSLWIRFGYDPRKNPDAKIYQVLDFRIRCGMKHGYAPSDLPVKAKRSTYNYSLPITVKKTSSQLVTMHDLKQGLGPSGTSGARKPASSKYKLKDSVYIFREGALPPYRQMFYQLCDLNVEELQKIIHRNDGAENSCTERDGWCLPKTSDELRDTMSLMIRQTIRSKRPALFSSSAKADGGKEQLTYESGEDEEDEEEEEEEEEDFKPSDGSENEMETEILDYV
UniProt Q92522: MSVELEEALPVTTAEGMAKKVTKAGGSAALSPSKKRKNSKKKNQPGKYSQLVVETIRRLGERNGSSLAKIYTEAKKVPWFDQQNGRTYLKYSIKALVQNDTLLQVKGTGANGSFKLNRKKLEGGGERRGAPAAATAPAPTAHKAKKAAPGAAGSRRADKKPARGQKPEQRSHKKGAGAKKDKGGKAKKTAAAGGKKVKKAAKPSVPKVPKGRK
UniProt Q9H0R4: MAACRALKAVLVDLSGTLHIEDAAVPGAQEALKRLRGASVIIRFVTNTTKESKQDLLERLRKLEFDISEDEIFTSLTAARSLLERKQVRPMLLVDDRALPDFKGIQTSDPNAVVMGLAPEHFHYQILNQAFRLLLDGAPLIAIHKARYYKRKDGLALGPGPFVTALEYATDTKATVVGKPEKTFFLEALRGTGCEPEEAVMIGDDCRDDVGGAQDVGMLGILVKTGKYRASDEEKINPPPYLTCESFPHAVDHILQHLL
UniProt P52657, whole entry, looked up: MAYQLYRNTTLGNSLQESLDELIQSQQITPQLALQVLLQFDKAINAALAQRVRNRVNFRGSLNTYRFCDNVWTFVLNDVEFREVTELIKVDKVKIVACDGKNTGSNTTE
UniProt P09211: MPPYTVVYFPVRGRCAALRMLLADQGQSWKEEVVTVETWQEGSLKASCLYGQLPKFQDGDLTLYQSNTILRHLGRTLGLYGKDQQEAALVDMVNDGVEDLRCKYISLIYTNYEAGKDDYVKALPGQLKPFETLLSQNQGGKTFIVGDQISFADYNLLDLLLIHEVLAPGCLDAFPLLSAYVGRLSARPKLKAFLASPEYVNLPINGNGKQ
UniProt P29084: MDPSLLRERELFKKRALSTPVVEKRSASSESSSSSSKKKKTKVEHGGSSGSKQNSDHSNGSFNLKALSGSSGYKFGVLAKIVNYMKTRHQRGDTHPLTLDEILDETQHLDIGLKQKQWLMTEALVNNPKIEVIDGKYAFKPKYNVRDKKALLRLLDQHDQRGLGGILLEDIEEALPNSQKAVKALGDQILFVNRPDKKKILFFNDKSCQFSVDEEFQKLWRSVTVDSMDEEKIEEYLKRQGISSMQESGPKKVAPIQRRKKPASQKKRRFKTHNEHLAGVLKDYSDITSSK
UniProt Q13889: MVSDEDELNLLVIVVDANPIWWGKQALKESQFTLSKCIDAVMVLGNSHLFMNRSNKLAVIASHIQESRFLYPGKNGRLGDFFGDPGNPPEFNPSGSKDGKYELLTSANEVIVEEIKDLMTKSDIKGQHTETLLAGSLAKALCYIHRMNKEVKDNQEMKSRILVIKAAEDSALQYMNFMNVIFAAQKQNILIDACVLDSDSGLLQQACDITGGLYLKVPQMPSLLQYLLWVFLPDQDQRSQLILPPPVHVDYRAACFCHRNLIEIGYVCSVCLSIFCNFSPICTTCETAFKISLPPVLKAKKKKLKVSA
UniProt Q13547, whole entry, looked up: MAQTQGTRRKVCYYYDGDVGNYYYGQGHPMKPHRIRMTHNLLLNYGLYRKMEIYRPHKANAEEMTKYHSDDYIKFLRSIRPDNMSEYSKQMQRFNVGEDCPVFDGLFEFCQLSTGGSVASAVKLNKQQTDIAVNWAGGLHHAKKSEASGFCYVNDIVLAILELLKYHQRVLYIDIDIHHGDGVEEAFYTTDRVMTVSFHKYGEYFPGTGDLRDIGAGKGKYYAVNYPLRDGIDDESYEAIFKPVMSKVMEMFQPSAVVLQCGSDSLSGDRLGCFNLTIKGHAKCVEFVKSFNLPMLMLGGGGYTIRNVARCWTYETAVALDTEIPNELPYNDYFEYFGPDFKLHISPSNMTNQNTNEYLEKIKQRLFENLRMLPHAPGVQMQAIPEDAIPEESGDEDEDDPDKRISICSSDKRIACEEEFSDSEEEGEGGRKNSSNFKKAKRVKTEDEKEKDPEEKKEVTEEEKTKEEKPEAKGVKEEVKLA
UniProt Q16774: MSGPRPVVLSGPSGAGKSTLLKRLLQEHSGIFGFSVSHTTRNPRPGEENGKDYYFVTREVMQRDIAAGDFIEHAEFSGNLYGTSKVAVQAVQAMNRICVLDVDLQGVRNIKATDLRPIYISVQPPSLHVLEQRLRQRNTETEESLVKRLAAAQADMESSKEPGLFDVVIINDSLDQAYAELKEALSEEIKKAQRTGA
UniProt Q9UBN7: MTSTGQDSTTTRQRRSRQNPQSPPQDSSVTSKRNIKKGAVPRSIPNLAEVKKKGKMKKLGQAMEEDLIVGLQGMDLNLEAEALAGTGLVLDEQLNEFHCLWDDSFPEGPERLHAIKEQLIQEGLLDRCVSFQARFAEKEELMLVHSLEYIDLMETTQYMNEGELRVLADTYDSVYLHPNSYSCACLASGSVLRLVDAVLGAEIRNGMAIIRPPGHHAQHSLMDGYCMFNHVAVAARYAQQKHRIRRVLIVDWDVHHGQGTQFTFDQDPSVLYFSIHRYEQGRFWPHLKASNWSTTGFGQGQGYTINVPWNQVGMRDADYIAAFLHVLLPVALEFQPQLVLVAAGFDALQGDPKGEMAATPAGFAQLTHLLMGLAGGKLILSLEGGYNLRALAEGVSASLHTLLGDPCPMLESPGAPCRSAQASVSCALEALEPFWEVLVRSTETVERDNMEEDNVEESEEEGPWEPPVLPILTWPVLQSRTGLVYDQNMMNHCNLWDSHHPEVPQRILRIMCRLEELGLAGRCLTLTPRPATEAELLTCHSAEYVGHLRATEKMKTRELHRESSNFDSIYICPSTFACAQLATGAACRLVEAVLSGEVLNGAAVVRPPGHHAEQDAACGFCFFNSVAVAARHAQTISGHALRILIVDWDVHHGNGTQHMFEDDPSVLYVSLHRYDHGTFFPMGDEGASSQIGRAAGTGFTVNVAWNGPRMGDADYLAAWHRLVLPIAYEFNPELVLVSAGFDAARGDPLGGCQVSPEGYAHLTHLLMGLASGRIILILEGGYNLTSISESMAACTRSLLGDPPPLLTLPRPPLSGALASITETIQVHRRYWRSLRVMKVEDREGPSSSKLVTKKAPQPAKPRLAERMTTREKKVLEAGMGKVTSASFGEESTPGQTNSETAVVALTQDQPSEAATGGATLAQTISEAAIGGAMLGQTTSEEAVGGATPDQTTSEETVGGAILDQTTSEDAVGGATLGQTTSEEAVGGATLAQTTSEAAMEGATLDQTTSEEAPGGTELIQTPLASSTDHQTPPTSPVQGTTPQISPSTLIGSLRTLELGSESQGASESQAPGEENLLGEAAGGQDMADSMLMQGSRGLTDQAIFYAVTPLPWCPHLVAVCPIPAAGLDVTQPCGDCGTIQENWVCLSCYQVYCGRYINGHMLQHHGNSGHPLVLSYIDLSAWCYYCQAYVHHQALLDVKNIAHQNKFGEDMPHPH

Each target was assayed with CN1CCc2c(c3ccccc3n2Cc2ccc(C(=O)NO)cc2)C1 [Tubastatin A] (assay: log2 fold change, soluble protein after heating vs DMSO (PISA); higher = thermal stabilisation; K562 cells, 10 uM, 30 min; active = over 0.2 and 3.5 SD of the protein, either way, in both replicates (recomputed)).
In short: (§1)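 Aliquots of K562 cells (2×10^6 cells/mL) treated with 10 μM compound for 30 min were heated for 3 min over 48°C-58°C. After pooling and extraction in PBS with 0.5% NP-40 at 4°C, soluble protein from a 21,000xg, 90 min spin was quantified by TMTpro 16plex LC-MS/MS with channel sums equalised. Thermal stability is expressed against control samples, from duplicates, as a log2 fold change.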

log2 fold change, inactive:
HADHB (UniProt P55084) 0.027, GSTM4 (UniProt Q03013) -0.044, HEXA (UniProt P06865) -0.145, GTF3A (UniProt Q92664) -0.072, H2AZ1 (UniProt P0C0S5) -0.017, GSR (UniProt P00390) 0.008, HEATR5B (UniProt Q9P2D3) 0.016, HEXB (UniProt P07686) -0.101, HAT1 (UniProt O14929) 0.036, HDGFL2 (UniProt Q7Z4V5) 0.013, GTF3C5 isoform 3 (UniProt Q9Y5Q8) 0.068, GTF2E1 (UniProt P29083) 0.064, H1FX (UniProt Q92522) 0.093, GTF3C4 (UniProt Q9UKN8) -0.009, HDHD2 (UniProt Q9H0R4) -0.016

What follows are targets tested with CNC(=O)C1=CC=CC=C1NC2=NC(=NC=C2Cl)NC3=C(C=C(C=C3)N4CCOCC4)OC in the same assay as above.
In short: as §1

log2 fold change, inactive:
GYS1 (UniProt P13807) 0.107, HBQ1 (UniProt P09105) -0.013, GTF2A2 (UniProt P52657) -0.031, HBZ (UniProt P02008) -0.041, GTF2A1 (UniProt P52655) -0.007, HBA1 (UniProt P69905) -0.01, GSTP1 (UniProt P09211) -0.001, GTF2E2 (UniProt P29084) 0.056, HEATR3 (UniProt Q7Z4Q2) -0.054, GUF1 (UniProt Q8N442) -0.026, GYG1 (UniProt P46976) 0.091, GTF2H3 (UniProt Q13889) 0.008, HAX1 (UniProt O00165) -0.14, HDDC2 (UniProt Q7Z4H3) 0.007, HDAC1 (UniProt Q13547) -0.163, GUK1 isoform 2 (UniProt Q16774) 0.027, GSK3B isoform 2 (UniProt P49841) 0.001, HECTD1 (UniProt Q9ULT8) 0.033, HAUS4 (UniProt Q9H6D7) 0.195, HDAC2 (UniProt Q92769) -0.113, GUSB (UniProt P08236) 0.045, H2AFX (UniProt P16104) -0.003, GSTO1 (UniProt P78417) -0.034, HDAC6 (UniProt Q9UBN7) -0.037, HADHB (UniProt P55084) 0.064, GSTM4 (UniProt Q03013) 0.003, HEXA (UniProt P06865) -0.012, GTF3A (UniProt Q92664) -0.03, H2AZ1 (UniProt P0C0S5) -0.102, GSR (UniProt P00390) -0.006, HEATR5B (UniProt Q9P2D3) 0.022, HEXB (UniProt P07686) 0.017, HAT1 (UniProt O14929) 0.05, HDGFL2 (UniProt Q7Z4V5) -0.061, GTF3C5 isoform 3 (UniProt Q9Y5Q8) -0.02, GTF2E1 (UniProt P29083) 0, H1FX (UniProt Q92522) 0.041, GTF3C4 (UniProt Q9UKN8) -0.005, HDHD2 (UniProt Q9H0R4) -0.017
